{"source": "PubChem BioAssay AID194", "about": "(DTP/NCI, 2004)", "system": "BDF1 mice, B16 melanoma s.c., survival/tumor T/C", "assay": "NCI In Vivo Anticancer Drug Screen. Data for tumor model B16 Melanoma (subcutaneous) in B6D2F1 (BDF1) mice", "details": "schedule: Q01DX009 (ip), vehicle: saline", "experimental": "The antitumor activity of compounds was measured in mice bearing transplantable tumors. Survival or tumor size were measured and the results are expressed as the measurement made in the treated group (T) divided by the measurement made in the vehicle treated control group (C). The tumor model used in this assay is B16 Melanoma (subcutaneous) in B6D2F1 (BDF1) mice", "note": "The list is a part of this screen's results and no random one: it covers a few groups of compounds. Not every dose and run of a compound is shown. T/C: endpoint of the treated group in % of that of the vehicle group. Some T/C values are marked as having no survivor count here; that says nothing about deaths at the dose. Schedules are NCI's codes, taken here to give the interval after Q, in days (D) or hours (H), and the number of doses after X. Where survival is the endpoint, this PubChem deposit counts one and a half times the control or more as active, and values a quarter to a half above the control carry no call in these data; other NCI protocols may use other cut-offs.", "data": [{"smiles": "CN(CCCl)CCCl", "values": [{"measurement": "T/C", "setting": "T/C endpoint: median survival time, dose: 0.08 mg/kg/injection, higher T/C = longer survival", "result": "135 % of control [survivor count not shown]"}, {"measurement": "T/C", "setting": "T/C endpoint: median survival time, dose: 0.15 mg/kg/injection, higher T/C = longer survival", "result": "100 % of control [survivor count not shown]"}, {"measurement": "T/C", "setting": "T/C endpoint: median survival time, dose: 0.3 mg/kg/injection, higher T/C = longer survival", "result": "128 % of control [survivor count not shown]"}, {"measurement": "T/C", "setting": "T/C endpoint: median survival time, dose: 0.6 mg/kg/injection, higher T/C = longer survival", "result": "101 % of control [survivor count not shown]"}, {"measurement": "T/C", "setting": "T/C endpoint: median survival time, dose: 12.5 micrograms/kg/injection, higher T/C = longer survival", "result": "123 % of control [survivor count not shown]"}, {"measurement": "T/C", "setting": "T/C endpoint: median survival time, dose: 25.0 micrograms/kg/injection, higher T/C = longer survival", "result": "126 % of control [survivor count not shown]"}, {"measurement": "T/C", "setting": "T/C endpoint: median survival time, dose: 50.0 micrograms/kg/injection, higher T/C = longer survival", "result": "93 % of control [survivor count not shown]"}, {"measurement": "T/C", "setting": "T/C endpoint: median survival time, dose: 100.0 micrograms/kg/injection, higher T/C = longer survival", "result": "128 % of control [survivor count not shown]"}, {"measurement": "T/C", "setting": "T/C endpoint: median tumor weight (est.), dose: 125.0 micrograms/kg/injection, evaluation day not shown, higher T/C = larger tumour", "result": "55 % of control [survivor count not shown]"}, {"measurement": "T/C", "setting": "T/C endpoint: median tumor weight (est.), dose: 250.0 micrograms/kg/injection, evaluation day not shown, higher T/C = larger tumour", "result": "75 % of control [survivor count not shown]"}, {"measurement": "T/C", "setting": "T/C endpoint: median tumor weight (est.), dose: 500.0 micrograms/kg/injection, evaluation day not shown, higher T/C = larger tumour", "result": "57 % of control [survivor count not shown]"}, {"measurement": "T/C", "setting": "T/C endpoint: median tumor weight (est.), dose: 1000.0 micrograms/kg/injection, evaluation day not shown, higher T/C = larger tumour", "result": "46 % of control [survivor count not shown]"}]}]}
